Data from paper PMC10647656.
These are yes or no findings as the source states them, for the method shown. In cells and extracts the contact can be indirect. Some binding calls cover weakened binding; strength is not graded here. For part of these data: Sequences can lack the tags named with a protein.

Sequences of proteins named here, by UniProt entry; tags and fusion partners are left off. A change or cut given only in a name is not applied to a line headed by its entry.
UniProt Q9H4E5: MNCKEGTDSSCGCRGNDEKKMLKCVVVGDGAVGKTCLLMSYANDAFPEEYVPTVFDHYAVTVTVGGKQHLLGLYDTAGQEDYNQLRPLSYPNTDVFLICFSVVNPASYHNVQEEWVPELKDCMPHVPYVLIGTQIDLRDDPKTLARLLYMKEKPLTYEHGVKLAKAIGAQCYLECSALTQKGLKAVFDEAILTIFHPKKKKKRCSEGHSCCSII
UniProt P50148: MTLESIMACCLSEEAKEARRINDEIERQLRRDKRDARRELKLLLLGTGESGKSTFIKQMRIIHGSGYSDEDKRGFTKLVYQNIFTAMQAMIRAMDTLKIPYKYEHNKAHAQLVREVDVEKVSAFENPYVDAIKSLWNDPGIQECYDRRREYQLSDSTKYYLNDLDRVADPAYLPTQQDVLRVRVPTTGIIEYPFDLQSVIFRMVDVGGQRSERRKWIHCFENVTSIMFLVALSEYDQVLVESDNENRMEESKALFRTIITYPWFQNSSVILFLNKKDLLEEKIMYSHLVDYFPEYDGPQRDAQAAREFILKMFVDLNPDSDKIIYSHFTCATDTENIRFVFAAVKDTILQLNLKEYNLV

What was measured:
GST-PRG-PH = molecular target: T1, GST-PRG-PH (UniProt O15085); experiment: pull-down; GST fusion and partners co-transfected in HEK293T cells, serum-starved overnight; lysates (TBS-Triton: 50 mM Tris pH 7.5, 150 mM NaCl, 1% Triton X-100, 5 mM EDTA) on glutathione-sepharose 1 h at 4 °C, 3 washes, Western blot; in some panels cells treated with the Gq inhibitor YM254890 (1 µM, 2 h) or co-transfected with active Gα subunits
T1 sequence: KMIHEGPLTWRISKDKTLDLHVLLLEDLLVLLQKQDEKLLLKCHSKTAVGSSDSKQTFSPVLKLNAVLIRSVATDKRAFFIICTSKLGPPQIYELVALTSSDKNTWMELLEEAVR

[1] = molecular target: GST-RhoJ-G33A (nucleotide-free RhoJ) (UniProt Q9H4E5); experiment: as above
[2] = molecular target: HA-Gαq-Q209L (constitutively active, oncogenic Gαq) (UniProt P50148); experiment: pull-down; competition: GST pull-down from lysates of transfected HEK-293T cells (bait GST-PRG-DH-PH, or GST-RhoJ-G33A with PRG-DH-PH) with or without co-transfected EGFP-PRG-PH as competitor; Western blot

With “HA-Gαq-Q209L (constitutively active, oncogenic Gαq) (from UniProt P50148 1-359)” the binding (GST-PRG-PH) was “binds”.

For “full-length PDZ-RhoGEF (AU1-PRG) (from UniProt O15085 1-1522)”, the binding [1] was “binds”.

B1: EGFP-tagged PDZ-RhoGEF-PH (EGFP-PRG-PH) (domain or fragment, UniProt O15085 965-1079)
chain: KMIHEGPLTWRISKDKTLDLHVLLLEDLLVLLQKQDEKLLLKCHSKTAVGSSDSKQTFSPVLKLNAVLIRSVATDKRAFFIICTSKLGPPQIYELVALTSSDKNTWMELLEEAVR
B1 was tested, and the binding [2] was “binds”.
